Source: paper PMC6056416
Results are given in words; binding and its absence hold for the method and conditions named. In cells and extracts the contact can be indirect. Some results given as binding are weak or reduced against the parent protein; the word gives no strength.

Protein sequences, listed by entry. Tags and fused reporters are not part of them.
UniProt O95071: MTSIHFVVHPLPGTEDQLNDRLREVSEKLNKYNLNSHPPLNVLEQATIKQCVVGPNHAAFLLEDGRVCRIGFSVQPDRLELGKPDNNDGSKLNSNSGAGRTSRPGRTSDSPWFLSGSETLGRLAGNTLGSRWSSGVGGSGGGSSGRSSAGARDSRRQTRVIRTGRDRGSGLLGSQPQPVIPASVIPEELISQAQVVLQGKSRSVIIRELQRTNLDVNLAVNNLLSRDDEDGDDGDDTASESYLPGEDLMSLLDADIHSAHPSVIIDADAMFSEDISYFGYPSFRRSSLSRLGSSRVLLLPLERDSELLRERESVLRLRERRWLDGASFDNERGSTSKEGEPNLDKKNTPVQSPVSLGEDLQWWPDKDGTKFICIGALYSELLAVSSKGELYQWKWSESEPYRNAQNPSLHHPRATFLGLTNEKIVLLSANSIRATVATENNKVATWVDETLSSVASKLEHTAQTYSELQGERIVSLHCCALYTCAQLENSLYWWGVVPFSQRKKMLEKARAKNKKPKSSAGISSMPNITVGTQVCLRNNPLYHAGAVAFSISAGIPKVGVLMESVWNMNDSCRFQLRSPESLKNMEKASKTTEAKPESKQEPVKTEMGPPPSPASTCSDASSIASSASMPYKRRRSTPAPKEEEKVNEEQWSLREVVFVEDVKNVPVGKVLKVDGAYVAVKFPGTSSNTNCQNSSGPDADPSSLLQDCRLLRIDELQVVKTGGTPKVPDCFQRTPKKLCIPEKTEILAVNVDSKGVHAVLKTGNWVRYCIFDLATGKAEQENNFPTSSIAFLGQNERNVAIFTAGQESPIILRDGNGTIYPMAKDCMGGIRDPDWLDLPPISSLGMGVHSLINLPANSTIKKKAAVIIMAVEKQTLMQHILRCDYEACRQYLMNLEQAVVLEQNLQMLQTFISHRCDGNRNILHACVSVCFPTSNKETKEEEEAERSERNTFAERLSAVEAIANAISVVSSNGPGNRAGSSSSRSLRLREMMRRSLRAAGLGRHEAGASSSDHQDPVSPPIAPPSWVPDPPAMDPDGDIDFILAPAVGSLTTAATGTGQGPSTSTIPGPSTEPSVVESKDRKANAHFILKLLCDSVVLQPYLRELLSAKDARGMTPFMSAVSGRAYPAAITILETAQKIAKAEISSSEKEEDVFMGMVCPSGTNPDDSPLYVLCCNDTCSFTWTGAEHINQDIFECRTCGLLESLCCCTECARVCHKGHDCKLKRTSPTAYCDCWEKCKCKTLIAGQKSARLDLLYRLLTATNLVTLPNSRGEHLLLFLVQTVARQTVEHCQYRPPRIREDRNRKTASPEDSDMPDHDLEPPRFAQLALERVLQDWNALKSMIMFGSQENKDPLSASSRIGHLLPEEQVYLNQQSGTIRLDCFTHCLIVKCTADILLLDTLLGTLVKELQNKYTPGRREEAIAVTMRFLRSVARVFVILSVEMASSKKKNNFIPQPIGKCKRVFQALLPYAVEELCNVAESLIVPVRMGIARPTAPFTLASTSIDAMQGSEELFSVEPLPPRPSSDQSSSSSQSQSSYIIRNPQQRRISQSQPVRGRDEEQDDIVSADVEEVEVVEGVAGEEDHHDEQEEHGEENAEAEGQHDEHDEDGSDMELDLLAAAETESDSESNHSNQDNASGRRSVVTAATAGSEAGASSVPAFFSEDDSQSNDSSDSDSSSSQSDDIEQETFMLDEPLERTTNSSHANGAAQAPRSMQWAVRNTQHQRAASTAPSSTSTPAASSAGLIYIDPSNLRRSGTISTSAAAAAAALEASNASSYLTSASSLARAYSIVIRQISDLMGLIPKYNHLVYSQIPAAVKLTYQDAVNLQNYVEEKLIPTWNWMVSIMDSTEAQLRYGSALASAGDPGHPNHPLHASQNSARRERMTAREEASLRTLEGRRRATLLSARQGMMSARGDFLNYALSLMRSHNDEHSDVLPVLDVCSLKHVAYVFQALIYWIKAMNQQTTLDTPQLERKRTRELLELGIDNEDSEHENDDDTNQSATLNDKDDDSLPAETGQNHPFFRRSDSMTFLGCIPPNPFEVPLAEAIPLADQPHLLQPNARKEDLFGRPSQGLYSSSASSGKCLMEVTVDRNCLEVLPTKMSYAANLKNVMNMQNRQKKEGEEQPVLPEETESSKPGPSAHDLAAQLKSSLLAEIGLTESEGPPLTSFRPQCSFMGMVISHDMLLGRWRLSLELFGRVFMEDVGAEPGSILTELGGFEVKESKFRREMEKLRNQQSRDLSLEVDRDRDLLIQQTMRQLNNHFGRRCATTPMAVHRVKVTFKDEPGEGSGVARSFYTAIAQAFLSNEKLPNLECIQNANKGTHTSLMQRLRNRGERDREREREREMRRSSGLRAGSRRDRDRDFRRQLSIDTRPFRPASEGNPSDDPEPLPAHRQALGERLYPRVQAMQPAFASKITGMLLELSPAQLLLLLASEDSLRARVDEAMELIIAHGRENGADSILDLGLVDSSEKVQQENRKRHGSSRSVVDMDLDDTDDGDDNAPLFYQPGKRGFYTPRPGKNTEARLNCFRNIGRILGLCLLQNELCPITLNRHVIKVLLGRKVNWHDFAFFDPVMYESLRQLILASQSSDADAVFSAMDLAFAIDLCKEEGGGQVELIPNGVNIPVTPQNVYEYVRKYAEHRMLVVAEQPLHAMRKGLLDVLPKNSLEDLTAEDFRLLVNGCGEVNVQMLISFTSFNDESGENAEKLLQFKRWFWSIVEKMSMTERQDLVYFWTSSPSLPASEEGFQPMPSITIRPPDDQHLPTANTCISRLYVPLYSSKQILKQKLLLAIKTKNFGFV
UniProt P42858: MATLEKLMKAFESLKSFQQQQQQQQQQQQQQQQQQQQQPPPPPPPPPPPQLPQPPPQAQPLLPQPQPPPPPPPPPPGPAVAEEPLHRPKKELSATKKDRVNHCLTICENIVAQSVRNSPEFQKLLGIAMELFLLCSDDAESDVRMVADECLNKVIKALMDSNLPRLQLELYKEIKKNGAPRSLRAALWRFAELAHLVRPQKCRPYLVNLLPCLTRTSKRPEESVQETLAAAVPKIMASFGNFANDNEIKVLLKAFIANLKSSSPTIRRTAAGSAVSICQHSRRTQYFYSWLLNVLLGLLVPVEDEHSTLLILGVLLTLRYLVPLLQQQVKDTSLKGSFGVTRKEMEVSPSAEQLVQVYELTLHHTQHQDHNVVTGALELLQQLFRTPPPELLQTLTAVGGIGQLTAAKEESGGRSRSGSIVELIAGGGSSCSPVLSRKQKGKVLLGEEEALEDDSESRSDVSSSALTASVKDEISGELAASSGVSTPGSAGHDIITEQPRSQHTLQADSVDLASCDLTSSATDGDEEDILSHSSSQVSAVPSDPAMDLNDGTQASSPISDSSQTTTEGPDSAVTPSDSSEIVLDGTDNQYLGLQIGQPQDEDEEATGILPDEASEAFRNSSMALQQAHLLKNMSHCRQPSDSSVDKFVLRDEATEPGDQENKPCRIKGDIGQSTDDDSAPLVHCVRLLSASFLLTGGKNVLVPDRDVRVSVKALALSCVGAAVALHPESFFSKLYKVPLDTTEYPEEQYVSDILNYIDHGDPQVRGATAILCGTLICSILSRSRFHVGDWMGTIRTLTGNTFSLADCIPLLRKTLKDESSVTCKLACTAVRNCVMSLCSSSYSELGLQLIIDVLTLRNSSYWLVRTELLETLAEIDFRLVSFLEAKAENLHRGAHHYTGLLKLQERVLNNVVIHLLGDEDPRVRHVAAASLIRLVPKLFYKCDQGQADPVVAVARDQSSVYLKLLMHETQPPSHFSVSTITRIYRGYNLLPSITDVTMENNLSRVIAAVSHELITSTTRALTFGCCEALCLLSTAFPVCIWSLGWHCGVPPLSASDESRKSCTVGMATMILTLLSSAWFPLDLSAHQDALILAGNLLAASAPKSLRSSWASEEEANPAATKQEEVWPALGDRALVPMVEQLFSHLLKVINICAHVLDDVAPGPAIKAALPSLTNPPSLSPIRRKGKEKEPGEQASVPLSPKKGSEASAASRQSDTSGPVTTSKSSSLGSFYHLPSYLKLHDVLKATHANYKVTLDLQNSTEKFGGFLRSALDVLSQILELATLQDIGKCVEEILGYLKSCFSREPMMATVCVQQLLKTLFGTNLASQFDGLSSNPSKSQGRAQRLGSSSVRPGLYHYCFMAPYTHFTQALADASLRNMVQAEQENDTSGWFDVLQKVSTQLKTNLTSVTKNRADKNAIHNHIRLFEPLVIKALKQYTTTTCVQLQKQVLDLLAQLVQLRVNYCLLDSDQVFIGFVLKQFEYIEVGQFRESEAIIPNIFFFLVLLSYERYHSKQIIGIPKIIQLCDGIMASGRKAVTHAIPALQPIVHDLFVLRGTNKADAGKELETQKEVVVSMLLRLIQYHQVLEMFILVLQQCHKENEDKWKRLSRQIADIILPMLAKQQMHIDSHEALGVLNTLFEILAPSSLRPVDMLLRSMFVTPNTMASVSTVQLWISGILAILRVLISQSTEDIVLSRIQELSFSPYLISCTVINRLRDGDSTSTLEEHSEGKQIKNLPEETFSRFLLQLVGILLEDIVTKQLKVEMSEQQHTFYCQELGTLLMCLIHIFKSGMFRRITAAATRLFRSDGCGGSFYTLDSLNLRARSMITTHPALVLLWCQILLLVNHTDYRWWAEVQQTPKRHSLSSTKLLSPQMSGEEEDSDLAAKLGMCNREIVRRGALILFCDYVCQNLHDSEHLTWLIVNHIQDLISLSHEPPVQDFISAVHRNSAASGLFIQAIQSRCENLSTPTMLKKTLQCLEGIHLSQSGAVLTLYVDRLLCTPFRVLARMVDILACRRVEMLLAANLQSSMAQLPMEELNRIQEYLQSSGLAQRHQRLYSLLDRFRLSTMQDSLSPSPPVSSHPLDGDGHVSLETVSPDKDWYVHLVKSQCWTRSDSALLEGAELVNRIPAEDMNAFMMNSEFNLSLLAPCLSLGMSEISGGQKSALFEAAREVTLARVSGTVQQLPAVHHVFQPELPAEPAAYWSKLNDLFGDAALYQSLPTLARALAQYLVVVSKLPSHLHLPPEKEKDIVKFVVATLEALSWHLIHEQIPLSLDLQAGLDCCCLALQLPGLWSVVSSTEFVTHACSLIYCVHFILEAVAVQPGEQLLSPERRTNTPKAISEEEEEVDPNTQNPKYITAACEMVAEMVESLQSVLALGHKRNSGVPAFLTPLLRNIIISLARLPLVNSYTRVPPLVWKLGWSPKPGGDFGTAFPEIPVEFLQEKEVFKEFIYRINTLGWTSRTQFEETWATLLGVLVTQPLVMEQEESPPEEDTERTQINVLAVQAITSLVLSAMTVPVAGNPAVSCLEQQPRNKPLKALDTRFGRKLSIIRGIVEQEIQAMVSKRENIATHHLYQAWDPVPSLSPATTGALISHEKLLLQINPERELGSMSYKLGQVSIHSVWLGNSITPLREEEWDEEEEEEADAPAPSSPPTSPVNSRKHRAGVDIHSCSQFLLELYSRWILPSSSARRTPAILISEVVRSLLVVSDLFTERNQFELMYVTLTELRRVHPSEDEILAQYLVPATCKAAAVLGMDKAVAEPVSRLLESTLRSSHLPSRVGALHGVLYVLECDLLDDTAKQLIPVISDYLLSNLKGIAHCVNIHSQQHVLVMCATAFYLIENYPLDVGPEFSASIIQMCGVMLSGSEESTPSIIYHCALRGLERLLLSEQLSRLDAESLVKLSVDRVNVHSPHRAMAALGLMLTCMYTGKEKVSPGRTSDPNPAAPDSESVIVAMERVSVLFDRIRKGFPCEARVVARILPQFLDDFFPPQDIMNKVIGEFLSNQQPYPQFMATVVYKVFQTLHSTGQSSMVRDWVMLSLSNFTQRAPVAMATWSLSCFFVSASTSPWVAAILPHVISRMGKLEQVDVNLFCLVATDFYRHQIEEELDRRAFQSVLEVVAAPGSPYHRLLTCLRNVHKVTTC
UniProt P54252: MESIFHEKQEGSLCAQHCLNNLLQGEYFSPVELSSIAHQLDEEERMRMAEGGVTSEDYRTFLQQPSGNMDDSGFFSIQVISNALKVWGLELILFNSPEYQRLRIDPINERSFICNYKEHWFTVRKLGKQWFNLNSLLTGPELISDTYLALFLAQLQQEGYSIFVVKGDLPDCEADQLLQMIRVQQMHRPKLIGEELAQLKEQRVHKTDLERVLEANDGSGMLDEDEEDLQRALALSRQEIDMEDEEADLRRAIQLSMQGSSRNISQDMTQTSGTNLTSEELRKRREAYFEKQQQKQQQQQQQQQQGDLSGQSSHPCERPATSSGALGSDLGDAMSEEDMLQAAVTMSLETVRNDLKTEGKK

Columns and labels:
[1] = molecular target: UBE3A (human (endogenous in iPSCs)) (UniProt Q05086); experiment: co-IP; HD Q71-iPSC line #1 lysed in RIPA buffer; immunoprecipitation with UBR5, UBE3A or FLAG (control) antibody and Protein A beads, western blot with HTT, polyQ-expanded HTT, UBR5 and UBE3A antibodies
[2] = molecular target: UBR5 (human (endogenous in iPSCs)) (UniProt O95071); experiment: as above
[3] = molecular target: UBR5 (human (endogenous in iPSCs)) (UniProt O95071); experiment: co-IP; control and ALS-iPSC lines lysed in RIPA buffer; immunoprecipitation with UBR5 antibody and Protein A beads, western blot (Supplementary Fig. 22b, c)
[4] = molecular target: UBR5 (human (endogenous in iPSCs)) (UniProt O95071); experiment: co-IP; MJD-iPSCs lysed in RIPA buffer; immunoprecipitation with UBR5 antibody and Protein A beads, western blot (Supplementary Fig. 22a)

| binding [1] | binding [2] | binding [3] | binding [4] | Substance |
| --- | --- | --- | --- | --- |
| no binding | binds | binds | binds | normal huntingtin (HTT) (from UniProt P42858 1-3142) |
|  |  |  | no binding | ataxin-3 (ATXN3), wild-type (from UniProt P54252 1-361) |
|  |  | no binding |  | FUS, wild-type (from UniProt P35637 1-526) |
